Assay results as given in article PMC6925144, “A prospective compound screening contest identified broader inhibitors for Sirtuin 1” (Scientific Reports, 2019).
Over roughly 3,200 compounds, “TSA(with NAD+) / Primary screening (TSA) / delta Tm (K)” has its median near -0.04; the highest 2% begin near 0.37. The list shows a part of the results.

Amino acid sequences for entries named in this document (tags omitted). Residues count along the entry.
UniProt Q96EB6, 2-747 limits assumed: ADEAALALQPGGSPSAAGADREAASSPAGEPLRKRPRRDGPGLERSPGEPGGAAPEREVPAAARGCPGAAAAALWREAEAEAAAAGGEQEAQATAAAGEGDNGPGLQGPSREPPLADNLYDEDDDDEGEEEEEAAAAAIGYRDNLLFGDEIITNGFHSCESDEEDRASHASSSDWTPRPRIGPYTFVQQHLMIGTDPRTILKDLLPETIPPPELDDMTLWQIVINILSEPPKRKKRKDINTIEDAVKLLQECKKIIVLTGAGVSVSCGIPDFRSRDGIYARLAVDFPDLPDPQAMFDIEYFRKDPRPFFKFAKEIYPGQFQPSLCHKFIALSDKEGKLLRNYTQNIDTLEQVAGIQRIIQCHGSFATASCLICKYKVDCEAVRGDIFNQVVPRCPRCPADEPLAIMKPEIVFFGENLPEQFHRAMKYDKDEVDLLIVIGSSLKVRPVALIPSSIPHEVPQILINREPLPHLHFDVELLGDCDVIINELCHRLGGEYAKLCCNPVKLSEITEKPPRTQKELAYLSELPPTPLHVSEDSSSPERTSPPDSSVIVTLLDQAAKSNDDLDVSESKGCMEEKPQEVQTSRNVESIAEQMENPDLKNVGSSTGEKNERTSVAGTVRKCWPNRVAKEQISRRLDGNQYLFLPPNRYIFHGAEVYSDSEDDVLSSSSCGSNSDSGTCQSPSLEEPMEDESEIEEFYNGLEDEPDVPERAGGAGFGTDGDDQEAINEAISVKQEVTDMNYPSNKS

Biological target: NAD-dependent deacetylase Sirtuin 1 (human, UniProt Q96EB6)
Assay: primary screen, delta tm
Set-up: single well (n = 1, as 'the same TSA')
Details: 10 µM
Description: A total of 3,192 compounds extracted from the proposed lists were first screened by thermal shift assay (TSA), which determined a melting temperature shift (ΔTm) of Sirtuin 1 upon the addition of a test compound at a concentration of 10 µM (n = 1) with primary hit criteria of ΔTm > 0.45 K or ΔTm < −1.5 K. Primary hits (48 compounds) were retested in the same assay at three concentrations (5, 10, 20 µM, n = 4) for hit confirmation and for dose-dependency check. Secondary hits (41 compounds) were checked their selectivity for Sirtuin 1 based on counterscreening on unrelated protein targets (bovine carbonic anhydrase (CA) and recombinant SH2 domain of hABL1 kinase (ABL1)) at three different concentrations (5, 10, 20 µM, n = 4), which yielded 38 hit compounds, hereafter referred to as TSA hits. The TSA screening above was conducted in the absence of NAD+. As noted, the structure of Sirtuin 1 is different in the presence of NAD+ and substrate. The chemical profile of TSA hits found from the different conditions could be different. […] As a result, 39 TSA hits were found.

Row | SMILES | TSA(with NAD+) / Primary screening (TSA) / delta Tm (K)
1 | CC1CCc2c(sc3ncnc(N4CCC(C(N)=O)CC4)c23)C1 (stereo not shown) | 0.26
2 | CCOC(=O)c1sc2nc(CSc3nncn3-c3ccccc3)[nH]c(=O)c2c1C | -0.13
3 | O=S(=O)(c1ccc(C(F)(F)F)cc1)N1CCNCC1 | 0.03
4 | Cc1ccc(N(C)S(=O)(=O)c2cccc(C(=O)NCCCn3cnc4ccccc43)c2)cc1 | 0.03
5 | COc1ccc(C=C2C(=O)NC(=S)NC2=O)cc1OC | -0.23
6 | COc1ccc(C(=O)C2=C(O)C(=O)N(CCCN3CCOCC3)C2c2ccncc2)cc1OC (stereo not shown) | -0.11
7 | CNC(=O)CCN(C)c1cccc(F)c1C#N | -0.34
8 | Cn1c(SCCCC(=O)c2ccccc2)nc2ccsc2c1=O | -0.12
9 | O=C(NC(c1ccccc1)c1ccc2nc(C(F)(F)F)[nH]c2c1)C1=COCCO1 (stereo not shown) | -0.14
10 | CC(C)N(Cc1ccccc1)C(=O)COC(=O)/C=C/c1ccc(S(=O)(=O)N2CCCCCC2)cc1 | 0.05
11 | CC(OC(=O)/C=C/c1ccc2c(c1)OCO2)C(=O)Nc1cccc([N+](=O)[O-])c1 (stereo not shown) | -0.09
12 | O=C1NC(=O)C(=Cc2cn(-c3ccccc3)nc2-c2cc3ccccc3o2)C(=O)N1 | -0.11
13 | O=C(O)CC[C@@H](O)C(=O)O | -0.03
14 | NC(=S)c1ccc(C(=O)N2CCCC(C(=O)NC3CC3)C2)cc1 (stereo not shown) | 0.11
15 | CCC(CC)C(O)CN (stereo not shown) | 0.09
16 | O=C(NCCn1cnc2ccccc21)c1ccc(N2CCCCC2=O)cc1 | -0.11
17 | O=C(O)CN1C(=O)COc2ccccc21 | -0.11
18 | Cc1cc(C)n(-c2cccc(N3CC(C(=O)O)CC3=O)c2)n1 (stereo not shown) | -0.09
19 | O=C(Nc1cccc(S(=O)(=O)N2CCOCC2)c1)c1ccccc1OCc1ccccc1 | -0.08
20 | O=C(CCCc1nc2ccccc2s1)Nc1cccc(S(=O)(=O)NCc2ccco2)c1 | -0.11
21 | Cn1c(=O)[nH]c(=O)c2c1nc(N1CCC(C(N)=O)CC1)n2CCSc1nc2ccccc2s1 | -0.11
22 | CCc1ccc(CNC(=O)CCCc2nc(-c3ccc(F)cc3)no2)cc1 | -0.01
23 | Cc1ccc(-c2nc(CC(=O)Nc3cccc(Cn4[nH]c(=O)ccc4=O)c3)cs2)o1 | -0.09

Row | SMILES | TSA(with NAD+) / Primary screening (TSA) / delta Tm (K)
24 | CCn1c(C)cc(C(=O)OC(C)C(=O)Nc2ccc(C(N)=O)cc2)c1C (stereo not shown) | -0.02
25 | Cc1ccc(C(C)C)c(OCC(=O)Nc2cc(C(N)=O)ccc2N2CCCC2)c1 | 0.06
26 | COc1cc(CN(C)C(=O)c2ccc(C)c(NC(=O)c3ccco3)c2)ccc1OCc1ccccc1 | -0.08
27 | CCc1ccc(C(=O)Nc2ccccc2C(=O)OC)cc1 | -0.02
28 | O=C(CN1CCN(C(=O)c2ccc(-c3ccccc3Cl)o2)CC1)Nc1cccc(F)c1 | 0.07
29 | COc1ccc(-n2c(C)c(C)c3c(N)ncnc32)cc1 | -0.21
30 | CCC(NC(=O)c1ccc(C(N)=O)cc1)C(c1ccc(C)cc1)n1cncn1 (stereo not shown) | 0.06
31 | CC(N)CCc1ccc(O)cc1 (stereo not shown) | -0.13
32 | O=C1CC(Cc2ccc(NC(=O)c3cc4ccccc4[nH]3)cc2)C(=O)N1 (stereo not shown) | -0.06
33 | COCC(C)(N)CN (stereo not shown) | -0.02
34 | CN(C)C(=O)c1ccc2[nH]c3c(c2c1)CCCC3 | -0.11
35 | CCCOc1ccc(C2C(C(=O)c3ccco3)=C(O)C(=O)N2CCCN2CCOCC2)cc1 (stereo not shown) | 0.03
36 | O=C1/C(=C/c2ccccc2Br)Oc2cc(O)ccc21 | 0.08
37 | Oc1ccccc1O | 0.07
38 | COC(=O)c1ccc2[nH]c(=O)[nH]c2c1OC | -0.12
39 | COC(=O)Cn1c(CN2CCC(C(N)=O)CC2)nc2c1c(=O)n(C)c(=O)n2C | -0.01
40 | CC(CSc1nc2ccccc2o1)Cn1c(N2CCC(C(N)=O)CC2)nc2c1c(=O)[nH]c(=O)n2C (stereo not shown) | -0.13
41 | Cc1ccccc1C1CC1C(=O)N1C2C=C(c3ccccc3)CC1CC2 (stereo not shown) | -0.23
42 | O=C(CCc1c[nH]c2ccccc12)Nc1nnc(-c2ccccc2)o1 | 0.39
43 | O=C(Nc1ccc(F)cc1F)c1ccc(/C=N/c2ccc(F)cc2F)cc1 | 0.07
44 | CN(CC(=O)Nc1cccc2ccccc12)C(=O)C1=COCCO1 | -0.23
45 | C=CCNc1nnc(SCC(=O)N(Cc2ccccc2)c2nc3c(s2)CCCC3)s1 | -0.02
46 | Cc1ccccc1CNC(=O)CSc1nc2ccsc2c(=O)n1C | -0.22

Row | SMILES | TSA(with NAD+) / Primary screening (TSA) / delta Tm (K)
47 | O=S(=O)([O-])CCl | -0.03
48 | C[C@@H]1O[C@@H]1P(=O)([O-])[O-] | -0.22
49 | O=C(NCc1nnc2n1CCCCC2)c1ccc(-c2ccccc2)cc1 | 0.11
50 | O=C(CN1CCOCC1)N1CCN(Cc2ccc3c(c2)OCO3)CC1 | -0.08
51 | CN1CCCN(c2ccc(NC(=O)NCCCNC(=O)c3cccc(O)c3)cc2F)CC1 | -0.05
52 | COc1cccc(C#CCO)c1 | -0.16
53 | Cc1cc(C)nc(-n2nc(C)cc2NC(=O)CCc2ccc(S(=O)(=O)N3CCOCC3)cc2)n1 | -0.01
54 | O=S(=O)([O-])CCS | 0.01
55 | O=c1c2ccccc2n2c(SCC3CCCCO3)nnc2n1Cc1ccccc1 (stereo not shown) | -0.04
56 | O=C(CN1CCN(C(=O)c2ccc(-c3ccc(F)cc3)o2)CC1)Nc1cccc(F)c1 | 0.19
57 | CCc1nsc(N2CCC(Oc3ccnc(C(N)=O)c3)CC2)n1 | -0.11
58 | CNc1ncnc2ccsc12 | -0.24
59 | COCc1nc(NCC(c2ccc(OC)cc2)N2CCOCC2)c2c(-c3ccccc3)csc2n1 (stereo not shown) | -0.15
60 | O=C1NC(=O)C(=Cc2cn(-c3ccccc3)nc2-c2cc3c(ccc4ccccc43)oc2=O)C(=O)N1 | 0.01
61 | CCN(CC)S(=O)(=O)c1ccc(OC(C)C)c(NC(=O)CC23CC4CC(CC(O)(C4)C2)C3)c1 | 0.17
62 | COc1ccc(N(C)S(=O)(=O)c2cccc(C(=O)Nc3ccc(C)cc3)c2)cc1 | 0.11
63 | CN(C)S(=O)(=O)c1ccc(C(=O)C2=C(O)C(=O)N(CCN3CCOCC3)C2c2ccccc2)cc1 (stereo not shown) | -0.09
64 | CCN(CC(=O)Nc1ccc(OC)cc1)CC(=O)Nc1ccc(C(N)=O)cc1 | -0.04
65 | Cc1nnc(N2CCN(C(=O)NC3CC3)CC2)c(C(N)=O)c1C | -0.01
66 | CCn1c(SC(C)C(=O)Nc2sc3c(c2C(N)=O)CCC3)nnc1N1CCOCC1 (stereo not shown) | -0.03
67 | NC(=O)NC(=O)CCN1CCN(CC(=O)Nc2ccccc2)CC1 | -0.03
68 | O=C(CSc1nnc(NC2CC2)s1)N(Cc1ccccc1)c1nc2c(s1)CCCC2 | -0.14
69 | O=C1/C(=C/c2cccc(F)c2)Oc2cc(O)ccc21 | -0.04

Random excerpt: 4 compounds from above
Row | SMILES | TSA(with NAD+) / Primary screening (TSA) / delta Tm (K)
57 | CCc1nsc(N2CCC(Oc3ccnc(C(N)=O)c3)CC2)n1 | -0.11
20 | O=C(CCCc1nc2ccccc2s1)Nc1cccc(S(=O)(=O)NCc2ccco2)c1 | -0.11
32 | O=C1CC(Cc2ccc(NC(=O)c3cc4ccccc4[nH]3)cc2)C(=O)N1 (stereo not shown) | -0.06
48 | C[C@@H]1O[C@@H]1P(=O)([O-])[O-] | -0.22

Continued.

Row | SMILES | TSA(with NAD+) / Primary screening (TSA) / delta Tm (K)
70 | CC1CCCN(CCCNC(=O)CCc2cc3ccccc3[nH]c2=O)C1 (stereo not shown) | 0.11
71 | CC(OC(=O)Cc1coc2cc(O)ccc12)C(=O)c1c[nH]c2ccccc12 (stereo not shown) | 0.17
72 | CN(c1ccccc1C(N)=O)S(=O)(=O)c1ccc2c3c(cccc13)C(=O)N2 | -0.01
73 | Cc1ccc(C23CC4CC(CC(C(=O)OCC(N)=O)(C4)C2)C3)cc1C | -0.16
74 | COC(=O)Cn1c(=O)c(C(=O)COC(=O)C2CC(O)CN2S(=O)(=O)c2ccc3ccccc3c2)c(N)n(Cc2ccccc2)c1=O (stereo not shown) | 0.23
75 | CCn1c(SCC(=O)NCc2cccs2)nc2ccsc2c1=O | 0.06
76 | COc1ccc(C(=O)C2=C(O)C(=O)N(CCCN3CCOCC3)C2c2ccc(C)cc2)cc1OC (stereo not shown) | -0.09
77 | c1ccc2c3c(ccc2c1)C(Nc1ccc2nnnn2n1)CCCO3 (stereo not shown) | 0.15
78 | CCn1cnnc1C1CCN(c2ncc([N+](=O)[O-])cc2C(N)=O)CC1 | 0.02
79 | O=C(NC1CCN(Cc2ccccc2)C1=O)c1cccnc1S (stereo not shown) | -0.11
80 | COc1ccc(C(=O)C2=C(O)C(=O)N(CCCN3CCOCC3)C2c2ccc(OC)cc2)cc1 (stereo not shown) | -0.03
81 | C/C=C/c1ccc(OCC(=O)Nc2cccc(S(=O)(=O)NCc3ccco3)c2)c(OC)c1 | -0.11
82 | O=C(COc1ccccc1Cc1ccccc1)NNC(=O)C1=COCCO1 | -0.11
83 | O=C(C1=C(O)C(=O)N(CCCN2CCOCC2)C1c1ccc(F)cc1)c1cc2ccccc2o1 (stereo not shown) | 0.06
84 | Cc1ccc(C(=O)C2=C(O)C(=O)N(CCCN3CCOCC3)C2c2ccc(OC(C)C)cc2)o1 (stereo not shown) | 0.02
85 | Cc1ccc(C(=O)Nc2ccc(N3CCN(Cc4ccccc4)CC3)cc2)cc1NC(=O)c1ccco1 | 0.12
86 | NC(=O)c1nn(CC(=O)Nc2ccc(N3CCN(Cc4ccccc4)CC3)cc2)c(=O)c2ccccc12 | 0.18
87 | Cc1ccc(OC2CCN(Cc3cc(=O)n4c(-c5ccccc5)csc4n3)CC2)cc1C | 0.09
88 | NC(=O)C1CCN(c2ncnc3sc4c(c23)CCCC4)CC1 | 0.32
89 | COc1ccccc1N1CCN(C(=O)c2ccccc2SCC(=O)NC23CC4CC(CC(C4)C2)C3)CC1 | -0.13
90 | CC(=O)NS(=O)(=O)c1ccc(NS(=O)(=O)c2cccs2)cc1 | 0.06
91 | CCn1nccc1CNc1cnc2c(c1)c(C)nn2C | -0.19
